Data from US6413935B1 (priority 1993, dated 2002).

Experiment: general procedure: Fmoc solid-phase peptide synthesis
Conditions: conjugation step

Substance	conjugation yield [%]
lacto-N-fucopentaose II-PADRE conjugate	45
Dodecasaccharide-PADRE Conjugate	54
